PubChem BioAssay AID743121 | NCATS – 2013
Test: 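Genes whose silencing strengthens cell killing by camptothecin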 (primary screen). Cells: MDA-MB-231 cells, a human breast cancer line. Reagents: single siRNA against human genes, 20 nM siRNA (0.8 pmol per well). Time to read-out: 120 h (drug added 48 h after transfection, read 72 h later). Challenge: camptothecin 20 nM (about EC30) for 72 h; vehicle 0.1% DMSO in parallel plates. Detection: 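Cell viability by ATP luminescence (CellTiter-Glo) as % of non-targeting siRNA wells, and the log2 ratio of viability without drug over viability with camptothecin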. Reading the numbers: log2 vehicle/camptothecin viability: higher = stronger sensitisation to camptothecin. Rule for the call: 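Each gene scored by redundant siRNA activity (RSA) over its individual siRNA ratios; a gene is called active at p < 0.001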.
The whole screen tested about 26,000 reagents; below is a part drawn at random. 167 of them (0.63%) count as active. 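Calls are per gene from RSA p-values that are not deposited; an individual active-marked siRNA can sensitise only weakly.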 Entries without a mark were called inactive. The numbers tell different reagents against one gene apart. Further read-outs or replicates are left out here.

What did the screen give for TSSK6 (GeneID 83983) #1?
log2 vehicle/camptothecin viability: 0.0372

What is on record for TSSK6 (GeneID 83983) #2?
log2 vehicle/camptothecin viability: -0.0779

With TSSK6 (GeneID 83983) #3, what was measured?
log2 vehicle/camptothecin viability: 0.349

Which result is listed for TSSK6 (GeneID 83983) #4?
log2 vehicle/camptothecin viability: -0.204

With PDXK (GeneID 8566) #1, what was measured?
log2 vehicle/camptothecin viability: -0.0136

Which result is listed for PDXK (GeneID 8566) #2?
log2 vehicle/camptothecin viability: 0.151

For PDXK (GeneID 8566) #3, what does the deposit list?
log2 vehicle/camptothecin viability: -0.623

Which result is listed for PDXK (GeneID 8566) #4?
log2 vehicle/camptothecin viability: -0.403

For APLN (GeneID 8862) #1, what does the deposit list?
log2 vehicle/camptothecin viability: -0.437

How did the screen score APLN (GeneID 8862) #2?
log2 vehicle/camptothecin viability: -0.152

For APLN (GeneID 8862) #3, how do the results read?
log2 vehicle/camptothecin viability: -0.431

What did the screen give for APLN (GeneID 8862) #4?
log2 vehicle/camptothecin viability: 0.0347

How did the screen score ANKFN1 (GeneID 162282) #1?
log2 vehicle/camptothecin viability: -0.0111

For ANKFN1 (GeneID 162282) #2, what was measured?
log2 vehicle/camptothecin viability: 0.517

What is on record for ANKFN1 (GeneID 162282) #3?
log2 vehicle/camptothecin viability: -0.268

What is on record for TRIM51BP (GeneID 399937) #1?
log2 vehicle/camptothecin viability: -0.33

What is on record for TRIM51BP (GeneID 399937) #2?
log2 vehicle/camptothecin viability: -0.0634

What did the screen give for NONO (GeneID 4841) #1?
log2 vehicle/camptothecin viability: 0.175

How did the screen score NONO (GeneID 4841) #2?
log2 vehicle/camptothecin viability: 0.468

With NONO (GeneID 4841) #3, what does the deposit list?
log2 vehicle/camptothecin viability: -0.422

What did the screen give for MMEL1 (GeneID 79258) #1?
log2 vehicle/camptothecin viability: 0.112

For MMEL1 (GeneID 79258) #2, what does the deposit list?
log2 vehicle/camptothecin viability: -0.395

With MMEL1 (GeneID 79258) #3, what was measured?
log2 vehicle/camptothecin viability: -0.154

With MMEL1 (GeneID 79258) #4, how do the results read?
log2 vehicle/camptothecin viability: -0.0434

Which result is listed for HOXD13 (GeneID 3239) #1?
log2 vehicle/camptothecin viability: -0.766

For HOXD13 (GeneID 3239) #2, what does the deposit list?
log2 vehicle/camptothecin viability: -0.0992

With HOXD13 (GeneID 3239) #3, how do the results read?
log2 vehicle/camptothecin viability: 0.308

Which result is listed for LIPF (GeneID 8513) #1?
log2 vehicle/camptothecin viability: -0.422

What did the screen give for LIPF (GeneID 8513) #2?
log2 vehicle/camptothecin viability: -0.142

With LIPF (GeneID 8513) #3, what was measured?
log2 vehicle/camptothecin viability: -0.264

With LIPF (GeneID 8513) #4, what does the deposit list?
log2 vehicle/camptothecin viability: 0.166

What is on record for CLCF1 (GeneID 23529) #1?
log2 vehicle/camptothecin viability: -0.236

For CLCF1 (GeneID 23529) #2, what does the deposit list?
log2 vehicle/camptothecin viability: 0.0227

For CLCF1 (GeneID 23529) #3, what was measured?
log2 vehicle/camptothecin viability: -0.892

With CLCF1 (GeneID 23529) #4, what was measured?
log2 vehicle/camptothecin viability: -0.12

A run of entries of the results above, for reference:
LIPF (GeneID 8513) #2 — log2 vehicle/camptothecin viability: -0.142
LIPF (GeneID 8513) #3 — log2 vehicle/camptothecin viability: -0.264
LIPF (GeneID 8513) #4 — log2 vehicle/camptothecin viability: 0.166
CLCF1 (GeneID 23529) #1 — log2 vehicle/camptothecin viability: -0.236
